Assay results published in publication PMC8175350, “Drug repurposing screens identify chemical entities for the development of COVID-19 interventions” (Nature Communications, 2021).
Where a name gives a salt, the structure may show the parent alone. Read-outs that look alike come from different tables or passages of the source.

Experiments:
Calu-3 cells = assay: cells; conditions: Homo sapiens, Calu-3, read-out: Calu-3 cell count EC50 GeoMean
HeLa-ACE2 cells [1] = assay: cells; conditions: Homo sapiens, HeLa-ACE2, read-out: HeLa-ACE2 cell count EC50 GeoMean
SARS-CoV-2 [2] = assay: microbe, parasite or virus in culture; assay type: cell-based
SARS-CoV-2 [3] = assay: microbe, parasite or virus in culture; assay type: cell-based; conditions: Severe acute respiratory syndrome coronavirus 2, HeLa-ACE2; detail block; read-out: HeLa-ACE2 CoV-2 EC50 GeoMean
SARS-CoV-2 [4] = assay: microbe, parasite or virus in culture; assay type: cell-based; conditions: Severe acute respiratory syndrome coronavirus 2, Calu-3, read-out: Calu-3 CoV-2 EC50 GeoMean
HeLa-ACE2 cells [5] = assay: cells; assay type: cell-based; conditions: Homo sapiens, HeLa-ACE2, read-out: HeLa-ACE2 TOA cell count EC50 GeoMean

## CN1CC2c3ccccc3Oc3ccc(Cl)cc3C2C1 (stereo not shown) [Asenapine maleate]
Calu-3 cells
  EC50: > 9.98 µM
HeLa-ACE2 cells [1]
  EC50: > 9.6 µM
SARS-CoV-2 [2]
  TOA:HeLa-ACE2 EC50 Ratio: 3.958
SARS-CoV-2 [2]; Severe acute respiratory syndrome coronavirus 2, HeLa-ACE2, read-out: HeLa-ACE2 TOA CoV-2 EC50 GeoMean
  EC50: > 9.61 µM
SARS-CoV-2 [3]
  EC50: > 2.43 µM
SARS-CoV-2 [4]
  EC50: > 9.98 µM
HeLa-ACE2 cells [5]
  EC50: > 9.61 µM
